Measured values as given in publication doi:10.1101/2023.04.17.537135 (bioRxiv, 2023).
Like-named read-outs stand apart in the source and are kept apart here. Results are given in words; binding and its absence hold for the method and conditions named. For some of these results: In cells and extracts the contact can be indirect. Some entries that bind do so weakly or less than the wild type. For some of these results: Sequences can lack the tags named with a protein.

The chains behind the UniProt entries cited, without tags or fusion partners.
UniProt Q9SI37: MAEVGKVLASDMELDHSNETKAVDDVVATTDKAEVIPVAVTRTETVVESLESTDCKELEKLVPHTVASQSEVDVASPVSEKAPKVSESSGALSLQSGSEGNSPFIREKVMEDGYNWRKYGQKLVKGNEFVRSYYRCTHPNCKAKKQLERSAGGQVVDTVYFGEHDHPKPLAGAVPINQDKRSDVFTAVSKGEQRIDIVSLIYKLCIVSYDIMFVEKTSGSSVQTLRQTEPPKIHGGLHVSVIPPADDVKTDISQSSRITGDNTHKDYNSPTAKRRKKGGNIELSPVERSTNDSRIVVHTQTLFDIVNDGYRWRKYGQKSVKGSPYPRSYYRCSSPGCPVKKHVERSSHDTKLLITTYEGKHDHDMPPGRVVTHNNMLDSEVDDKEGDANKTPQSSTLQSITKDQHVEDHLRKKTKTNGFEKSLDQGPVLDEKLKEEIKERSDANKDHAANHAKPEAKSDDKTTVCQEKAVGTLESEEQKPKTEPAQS

T1: AHL10 (AT-Hook Like10), full length, yeast two-hybrid bait (Arabidopsis thaliana) (UniProt O22812)
T1 sequence: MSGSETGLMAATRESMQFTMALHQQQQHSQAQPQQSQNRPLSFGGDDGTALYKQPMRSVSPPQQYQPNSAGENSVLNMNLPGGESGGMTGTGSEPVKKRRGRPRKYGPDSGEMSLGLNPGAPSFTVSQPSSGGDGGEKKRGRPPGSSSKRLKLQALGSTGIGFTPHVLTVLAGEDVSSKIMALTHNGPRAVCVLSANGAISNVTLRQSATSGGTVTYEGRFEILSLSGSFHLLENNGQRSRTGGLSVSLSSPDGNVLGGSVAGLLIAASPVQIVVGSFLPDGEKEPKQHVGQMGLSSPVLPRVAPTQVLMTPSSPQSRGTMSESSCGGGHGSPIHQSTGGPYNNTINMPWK


Key:
[1] = molecular target: T1, AHL10 (AT-Hook Like10), full length, yeast two-hybrid bait (Arabidopsis thaliana); experiment: two-hybrid
[2] = molecular target: T1, AHL10 (AT-Hook Like10), full length, yeast two-hybrid bait (Arabidopsis thaliana); experiment: two-hybrid; remark: listed apart in the source
[3] = molecular target: WRKY1, rBiFC fusion (Arabidopsis thaliana) (UniProt Q9SI37); experiment: split reporter
[4] = molecular target: WRKY1, rBiFC fusion (Arabidopsis thaliana) (UniProt Q9SI37); experiment: split reporter; remark: listed apart in the source

| Binder | binding [1] | binding [2] | binding [3] | binding [4] |
| --- | --- | --- | --- | --- |
| RRP6L1Δ1-562 (C-terminal 76 amino acids of RRP6L1), yeast two-hybrid prey (domain or fragment, UniProt Q0WVE8 563-637) ESYEQSTKAADALDRVSETPSKGSPSLTQKPKTCNTEVIVLDDDDDSESREDEDMRRRSEKHRRFMNMKRGFLNI | binds | binds | – | – |
| RRP6L1 C-terminal 192 amino acids, yeast two-hybrid prey (domain or fragment, UniProt Q0WVE8 446-637) SASSLSLEKVCVDDSKKQSSGFGVLPLKRKLESDKTVVEKNIEPKIEKTGTEASASSLSSKKVCVDDSKKQSSGFGVLLSKRKFESDNKVKEEVKVSKSKPDKVIIVVDDDDDDDDDESYEQSTKAADALDRVSETPSKGSPSLTQKPKTCNTEVIVLDDDDDSESREDEDMRRRSEKHRRFMNMKRGFLNI | – | binds | – | – |
| AHL10 (AT-Hook Like10), full length, yeast two-hybrid bait (protein, UniProt O22812 1-351) MSGSETGLMAATRESMQFTMALHQQQQHSQAQPQQSQNRPLSFGGDDGTALYKQPMRSVSPPQQYQPNSAGENSVLNMNLPGGESGGMTGTGSEPVKKRRGRPRKYGPDSGEMSLGLNPGAPSFTVSQPSSGGDGGEKKRGRPPGSSSKRLKLQALGSTGIGFTPHVLTVLAGEDVSSKIMALTHNGPRAVCVLSANGAISNVTLRQSATSGGTVTYEGRFEILSLSGSFHLLENNGQRSRTGGLSVSLSSPDGNVLGGSVAGLLIAASPVQIVVGSFLPDGEKEPKQHVGQMGLSSPVLPRVAPTQVLMTPSSPQSRGTMSESSCGGGHGSPIHQSTGGPYNNTINMPWK | – | binds | – | – |
| AHL10 wild type, rBiFC fusion (protein, UniProt O22812 1-351) MSGSETGLMAATRESMQFTMALHQQQQHSQAQPQQSQNRPLSFGGDDGTALYKQPMRSVSPPQQYQPNSAGENSVLNMNLPGGESGGMTGTGSEPVKKRRGRPRKYGPDSGEMSLGLNPGAPSFTVSQPSSGGDGGEKKRGRPPGSSSKRLKLQALGSTGIGFTPHVLTVLAGEDVSSKIMALTHNGPRAVCVLSANGAISNVTLRQSATSGGTVTYEGRFEILSLSGSFHLLENNGQRSRTGGLSVSLSSPDGNVLGGSVAGLLIAASPVQIVVGSFLPDGEKEPKQHVGQMGLSSPVLPRVAPTQVLMTPSSPQSRGTMSESSCGGGHGSPIHQSTGGPYNNTINMPWK | – | – | binds | binds |
| RRP6L1 C-terminal 338 amino acids, yeast two-hybrid prey (domain or fragment, UniProt Q0WVE8 300-637) VYKRSYDVCMQLYEKELWTRDSYLHVYGVQTGNLNAVQLSIVAGLCEWRDRIARADDESTGYVLPNKTLFDIAKEMPIVVAQLRRLLKSKLPYLERNFDAVISVIRRSMQNAAAFEPVVQSLKDRRPETVVEMNIEPKIEKTDTGASASSLSLEKVCVDDSKKQSSGFGVLPLKRKLESDKTVVEKNIEPKIEKTGTEASASSLSSKKVCVDDSKKQSSGFGVLLSKRKFESDNKVKEEVKVSKSKPDKVIIVVDDDDDDDDDESYEQSTKAADALDRVSETPSKGSPSLTQKPKTCNTEVIVLDDDDDSESREDEDMRRRSEKHRRFMNMKRGFLNI | – | no binding | – | – |
